Assay results published in PubChem BioAssay AID540256 (National Center for Advancing Translational Sciences (NCATS), 2011).
Screen size: about 300,000 compounds; about 3,700 (1.2%) were called active. The inconclusive results got no clear call from the source; some entries with a clear call stand among them for comparison. The call rests on the fitted dose curve; tested in HEK293 cells. Potencies of inconclusive entries are doubtful fits and often do not repeat.

Test: qHTS for Inhibitors of binding or entry into cells for Lassa Virus; further: nearly all actives have a fitted effect of over 50% in size
Details: Lassa virus pseudotype entry inhibition, cell reporter; series mostly up to 37.9 µM
Potency means the concentration at half of the fitted maximal effect.

Row | Compound | Potency
1 | COc1ccc(NC(=S)Nc2cccc(Cl)c2Cl)cc1OC | inactive
2 | Nc1nnc(CCN2C(=O)CSC2=O)s1 | inconclusive: 0.164 µM [inhibitor, partial curve, poor fit]
3 | Cc1cccc(C)c1NC(=S)N/N=C/c1c(Cl)cccc1Cl | inconclusive: 1.26 µM [inhibitor, partial curve, poor fit]
4 | CC(C)C[C@H]1COc2cccc(N3CCCC3)c2S(=O)(=O)N1 | inconclusive: 2.81 µM [activator, partial curve, poor fit]
5 | NCC(c1ccc(Cl)cc1Cl)c1c[nH]c2ccccc12 (stereo unspecified) | inactive
6 | O=C1C2=C(Nc3ccccc3SC2c2ccco2)c2ccccc21 (stereo unspecified) | inconclusive: 25.1 µM [inhibitor, single point]
7 | CC(C)NS(=O)(=O)c1ccc(NC(=O)NC2CCCCC2)cc1 | inconclusive: 35.5 µM [inhibitor, single point]
8 | CC(C)c1ccc(S(=O)(=O)N2CCN(C(=O)c3ccc(N4CCCC4)c([N+](=O)[O-])c3)CC2)cc1 | inconclusive: 12.6 µM [inhibitor, partial curve, poor fit]
9 | CCc1ccc(N(CC(=O)NC)S(C)(=O)=O)cc1 | inconclusive: 6.51 µM [inhibitor, single point]
10 | Cc1ccc(-n2c(=O)c3c4c(sc3n(CC(=O)Nc3ccccc3C)c2=O)CCCCC4)cc1C | inactive
11 | COCCN1CC(C(=O)N2CCC(Oc3ccccc3OC)CC2)CCC1=O (stereo unspecified) | inconclusive: 0.891 µM [inhibitor, single point]
12 | Cc1ccc(Cl)cc1NC(=S)N/N=C/c1cccc2ccccc12 | inconclusive: 3.16 µM [inhibitor, single point]
13 | O=C1C(c2ccnc3ccccc23)=C(O)c2ccccc21 | active: 2.82 µM
14 | COc1cccc(/C=N/NC(=O)c2cc3cc([N+](=O)[O-])ccc3s2)c1O | inconclusive: 5.01 µM [inhibitor, full curve, poor fit]
15 | CC(C)(C)NC(=O)CN(C(=O)Cn1nnc(-c2ccc(Cl)cc2)n1)C1CCN(Cc2ccccc2)CC1 | inconclusive: 12.6 µM [inhibitor, partial curve, poor fit]
16 | CC(OC(=O)C1CCN(c2ccc(C(F)(F)F)cn2)CC1)C(=O)Nc1ccc(S(N)(=O)=O)cc1 (stereo unspecified) | inactive
17 | COc1ccc(S(=O)(=O)N2CC(O)CC2C(=O)OCc2nc3sc(C)c(C)c3c(=O)[nH]2)cc1 (stereo unspecified) | inconclusive: 6.31 µM [inhibitor, single point]
18 | CN(C(=O)CSc1nc(C2CC2)n(-c2ccccc2)n1)C1CCS(=O)(=O)C1 (stereo unspecified) | inconclusive: 1.26 µM [inhibitor, single point]
19 | CN(C)c1nc(N(C)C)nc(N(C#N)CCOc2ccccc2)n1 | inactive
20 | CC1Cc2cc(S(=O)(=O)NCc3ccc(N(C)C)cc3)ccc2N1C(=O)C1CCC1 (stereo unspecified) | inconclusive: 12.6 µM [inhibitor, partial curve]
21 | O=C(O)c1ccc(/C=C2\COc3ccccc3C2=O)cc1 | inconclusive: 6.31 µM [inhibitor, partial curve, poor fit]
22 | COc1ccccc1CNC(=O)c1cnn2c(C(F)F)cc(C)nc12 | inactive

Excerpt, entries 6–8
Row | Compound | Potency
6 | O=C1C2=C(Nc3ccccc3SC2c2ccco2)c2ccccc21 (stereo unspecified) | inconclusive: 25.1 µM [inhibitor, single point]
7 | CC(C)NS(=O)(=O)c1ccc(NC(=O)NC2CCCCC2)cc1 | inconclusive: 35.5 µM [inhibitor, single point]
8 | CC(C)c1ccc(S(=O)(=O)N2CCN(C(=O)c3ccc(N4CCCC4)c([N+](=O)[O-])c3)CC2)cc1 | inconclusive: 12.6 µM [inhibitor, partial curve, poor fit]

(cont.)

Row | Compound | Potency
23 | COc1ccc(N2CC(NC(=O)COc3ccc4ccccc4c3)CC2=O)cc1OC (stereo unspecified) | inactive
24 | O=C(c1cc(-c2ccncc2)nc2ccccc12)N1CCN(S(=O)(=O)/C=C/c2ccccc2)CC1 | inconclusive: 17.8 µM [inhibitor, partial curve, poor fit]
25 | CNC(=O)c1ccsc1NC(=O)C1CCCN1S(=O)(=O)c1cccs1 (stereo unspecified) | inactive
26 | CCOC(=O)N1CCc2c(sc3c2C(=O)NC(c2ccccc2F)N3)C1 (stereo unspecified) | inconclusive: 11.2 µM [inhibitor, partial curve, poor fit]
27 | C/C(=N\NC(=O)Cc1ccc(Cl)cc1)c1ccccc1O | inactive
28 | c1ccc2c(c1)OCCOCCOCCOCCOc1ccccc1OCCOCCOCCO2 | inconclusive: 18.4 µM [inhibitor, partial curve, poor fit]
29 | COc1ccc(-c2ccc(CCC(=O)O)n2CC(=O)Nc2cccc(OC)c2)cc1 | inconclusive: 35.5 µM [inhibitor, single point]
30 | N#Cc1sc2nc3c(c(-c4ccco4)c2c1N)CCCC3 | inactive
31 | O=C(Nc1ccc(C(F)(F)F)cc1)N1CCN(c2ccnc3cc(Cl)ccc23)CC1 | inconclusive: 8.91 µM [inhibitor, partial curve, poor fit]
32 | Cc1cc(OCC(=O)N2CCc3ccccc3C2)c(C)cc1Br | inconclusive: 35.5 µM [inhibitor, single point]
33 | COc1ccc(NS(=O)(=O)c2cccc(C(=O)N3CCN(Cc4cc(OC)ccc4OC)CC3)c2)cc1 | inconclusive: 10 µM [inhibitor, partial curve, poor fit]
34 | Cc1cc(C(=O)N2CCN(c3cccc(Cl)c3)CC2)c(C)o1 | inconclusive: 11.2 µM [inhibitor, partial curve]
35 | CCOc1ccccc1NC(=O)c1c(NCc2sccc2C)sc2c1CCC(C)C2 (stereo unspecified) | inactive
36 | CC(O)CNc1ccc(-c2n[nH]c(=O)c3ccccc23)cc1[N+](=O)[O-] (stereo unspecified) | inactive
37 | Oc1ccc(/C=N/Nc2nc(N3CCCC3)nc(N3CCCC3)n2)cc1O | inconclusive: 35.5 µM [inhibitor, partial curve, poor fit]
38 | Cc1cc(-c2ccc(S(=O)(=O)Nc3ccc(Cl)cc3C)cc2)on1 | inactive
39 | CC(C)NC(=O)c1ccc(COc2ccc(C(C)(C)C)cc2)o1 | inconclusive: 7.08 µM [inhibitor, partial curve, poor fit]
40 | O=[N+]([O-])c1cccc(-c2ccc(/C=N/Nc3nc(N4CCCCC4)nc(N4CCCCC4)n3)o2)c1 | inconclusive: 8.91 µM [inhibitor, partial curve, poor fit]
41 | O=C(Nc1ccc(Br)cc1)c1cccc(N2C(=O)C3C4C=CC(C4)C3C2=O)c1 (stereo unspecified) | inactive
42 | CC1Cc2ccccc2N1C(=O)CSc1ncc(-c2ccc(F)cc2)n1C (stereo unspecified) | inconclusive: 35.5 µM [inhibitor, single point]
43 | c1ccc2c(Nc3ccc4c(c3)OCCO4)c3c(nc2c1)CCCC3 | active: 7.94 µM
44 | CC1(C)CC2(CC(c3ccccc3F)c3ccc(O)c(O)c3O2)NC(=S)N1 (stereo unspecified) | inconclusive: 20 µM [inhibitor, partial curve, poor fit]

Row | Compound | Potency
45 | O=C(NCc1ccccc1)c1csc2c1CCCCC2 | inactive
46 | O=C(Nc1ccc(Cl)cc1)N1CCC(c2ccccc2)C1 (stereo unspecified) | inconclusive: 10 µM [inhibitor, partial curve, poor fit]
47 | CC(/C=C/c1ccc2c(c1)OCO2)=N/NC(=O)CNc1ccc(C)cc1 | inconclusive: 14.6 µM [inhibitor, partial curve, poor fit]
48 | CCOc1ccc2[nH]c(=O)c(CN(Cc3cccs3)C(CC)c3nnnn3C(C)(C)CC)cc2c1 (stereo unspecified) | inconclusive: 20 µM [inhibitor, partial curve, poor fit]
49 | COc1cc(NC(=O)CSc2nnc3ccc(-c4cccnc4)nn23)cc(OC)c1 | inconclusive: 6.31 µM [inhibitor, single point]
50 | COc1ccc(Oc2c(Cl)cnn(-c3ccccc3)c2=O)cc1 | inconclusive: 11.2 µM [inhibitor, partial curve]
51 | CCOC(=O)C1=C(c2ccccc2)NC(=S)NC1c1cccc([N+](=O)[O-])c1 (stereo unspecified) | inactive
52 | Cc1ccc(CCNC(=O)c2ccc3c(=O)n(-c4ccccc4)c(=O)[nH]c3c2)cc1 | inactive
53 | O=C(C1CCC(CNc2nc(=S)[nH]c3ccccc23)CC1)N1CCN(c2ccccn2)CC1 (stereo unspecified) | inactive
54 | COc1ccc(CCNC(=O)c2cccc(C(=O)NCCc3ccc(OC)cc3)n2)cc1 | inconclusive: 25.1 µM [inhibitor, single point]
55 | O=C(O)C1NCCc2ccccc21 (stereo unspecified) | inactive
56 | COc1cccc(CNS(=O)(=O)c2cc3c4c(c2)CCC(=O)N4CCC3)c1 | inconclusive: 15.8 µM [inhibitor, partial curve, poor fit]
57 | CCN1CCc2c(sc(NC(=O)c3ccc(S(=O)(=O)N4CCOCC4)cc3)c2C(=O)OC)C1 | inconclusive: 15.8 µM [inhibitor, single point]
58 | CSc1nnc(SCC(=O)NC(=O)c2ccccc2)s1 | inconclusive: 0.1 µM [activator, full curve, poor fit]
59 | COC(=O)CNC(=O)COc1ccccc1 | inconclusive: 10 µM [activator, partial curve, poor fit]
60 | COc1cc(Cl)c(C)cc1NC(=O)c1cnc(N2CCOCC2)c2ccccc12 | inconclusive: 35.5 µM [inhibitor, single point]
61 | O=c1c2ccccc2nc(Cc2ccccc2)n1-c1ccc(O)cc1 | inconclusive: 11.6 µM [inhibitor, partial curve]
62 | O=C(NC(=S)Nc1ccccc1Br)C1CCC1 | inconclusive: 7.08 µM [activator, full curve, poor fit]
63 | N=c1c2c(n(Cc3cccc(Cl)c3)c3c1CCC3)CCCC2 | inconclusive: 11.6 µM [inhibitor, partial curve, poor fit]
64 | Cc1cccn2c(=O)c3cc(C(=O)NC4CCCCC4)c(=N)n(Cc4ccccc4)c3nc12 | inconclusive: 35.5 µM [inhibitor, single point]
65 | CC(N=C1NS(=O)(=O)c2ccccc21)C(=O)NCCCc1ccccc1 (stereo unspecified) | inconclusive: 5.62 µM [activator, single point]
66 | COc1ccc(C(=O)NC(c2ccc(Cl)cc2)c2cc(Cl)c3cccnc3c2O)cc1 (stereo unspecified) | inactive
